# Melanoma cell counts after drug treatment

Drug key:
SU6656 (0.4 µM): CN(C)S(=O)(=O)c1ccc2c(c1)/C(=C/c1cc3c([nH]1)CCCC3)C(=O)N2
STA-4783 (0.006 µM): CN(NC(=O)CC(=O)NN(C)C(=S)c1ccccc1)C(=S)c1ccccc1
gemcitabine (0.0004 µM): Nc1ccn([C@@H]2O[C@H](CO)[C@@H](O)C2(F)F)c(=O)n1
GW2580 (1 µM): COc1ccc(COc2ccc(Cc3cnc(N)nc3N)cc2OC)cc1

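Human melanoma cell lines in 1,536-well plates were treated with two drugs together for 72 h, then fixed, stained and imaged. The read-out is cell count (nuclei) in % of the DMSO control; lower values mean stronger growth inhibition or killing. Every drug was used at one fixed concentration, the lower of two screened (a fifth of the higher). No replicate spread is given; individual values may be noisy.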
Only some of the drugs and lines screened are listed, without regard to their results.
A dash means that no value is listed here.

Cell line,GW2580 and STA-4783,STA-4783 and gemcitabine,SU6656 and STA-4783,gemcitabine and GW2580,GW2580 and SU6656,gemcitabine and SU6656
C32,54.3,109,68.9,84.8,91.9,100
A375,21.5,50.6,24.0,-,112,117
G-361,85.1,102,76.6,77.8,94.6,82.6
A101D,55.7,94.8,87.1,101,96.5,109
501mel,55.5,-,-,113,101,-
A2058,57.3,84.3,62.6,91.3,118,105
COLO 829,64.7,67.8,68.3,97.3,94.4,84.7
LOX IMVI,61.4,81.7,84.1,100,125,144
LB2518-MEL,75.7,75.5,62.2,100,101,87.2
IST-MEL1,78.2,50.1,73.8,76.2,101,67.1
IPC-298,95.9,83.0,94.9,84.1,101,92.0
COLO 792,86.2,78.4,50.8,95.3,108,105
COLO 800,31.5,42.7,59.9,82.5,83.2,69.9
MEL-HO,99.6,83.7,90.3,92.1,101,91.0

Once more, the final 2:

Cell line,GW2580 and STA-4783,STA-4783 and gemcitabine,SU6656 and STA-4783,gemcitabine and GW2580,GW2580 and SU6656,gemcitabine and SU6656
COLO 800,31.5,42.7,59.9,82.5,83.2,69.9
MEL-HO,99.6,83.7,90.3,92.1,101,91.0

Data from the primary screen of doi:10.1371/journal.pone.0140310, rounded.